Experimental data: PubChem BioAssay AID1259424 (University of Nebraska Medical Center, 2018)
Shown is an unselected part of about 14,000 reagents. 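Higher correlation or smaller distance means closer resemblance to KSR1 loss; control wells, including KSR1 knockdowns, recur on many plates.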 A reagent listed more than once was tested more than once; the source does not tell the runs apart. Not all columns of the deposit are shown. Reagent sequences are not shown. Not given: the time to read-out.

Assay: 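Find knockdowns that reproduce the expression shifts seen after KSR1 loss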 (primary screen)
System: human HCT116 colon cancer cells
Knock-down reagent: siRNA pool against human genes, 50 nM
Measured: 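Six signature mRNAs by branched-DNA multiplex assay, scaled to two housekeeping genes and non-targeting median, log2; matched to mean KSR1 knockdown profile by Pearson correlation and euclidean distance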
Direction: mean correlation with KSR1 profile: higher = expression change more like KSR1 knockdown; mean distance from KSR1 profile: higher = expression change less like KSR1 knockdown

mean correlation with KSR1 profile	mean distance from KSR1 profile	gene symbol
-0.627	6.42	CA10 (carbonic anhydrase 10 (inactive))
-0.186	1.58	WNT1 (Wnt family member 1)
0.864	1.32	GNB1 (G protein subunit beta 1)
0.00153	1.9	GORASP2 (golgi reassembly stacking protein 2)
-0.409	3.57	ACO2 (aconitase 2)
-0.31	1.77	ARIH1 (ariadne RBR E3 ubiquitin protein ligase 1)
0.0369	2.08	SHOX2 (SHOX homeobox 2)
0.737	1.22	NPHS1 (NPHS1 adhesion molecule, nephrin)
-0.386	3.27	CREB3 (cAMP responsive element binding protein 3)
-0.0107	1.82	APEX1 (apurinic/apyrimidinic endodeoxyribonuclease 1)
0.531	1.67	CYRIB (CYFIP related Rac1 interactor B)
0.255	1.14	RARB (retinoic acid receptor beta)
-0.115	2.57	RARB (retinoic acid receptor beta)
-0.604	1.76	LAMA3 (laminin subunit alpha 3)
-0.247	2.1	UTP14C (UTP14C small subunit processome component)
0.271	3.73	SH3TC2 (SH3 domain and tetratricopeptide repeats 2)
0.0985	2.11	RIC8B (RIC8 guanine nucleotide exchange factor B)
0.00412	1.2	CYP3A4 (cytochrome P450 family 3 subfamily A member 4)
-0.454	2.6	EPHX2 (epoxide hydrolase 2)
-0.682	2.53	PLK4 (polo like kinase 4)
0.0228	2.57	CHN2 (chimerin 2)
0.231	4.38	S100P (S100 calcium binding protein P)
-0.347	4.37	CDK2AP2 (cyclin dependent kinase 2 associated protein 2)
0.208	2.63	OGG1 (8-oxoguanine DNA glycosylase)
0.16	1.76	TRANK1 (tetratricopeptide repeat and ankyrin repeat containing 1)
-0.269	3.31	S100A11 (S100 calcium binding protein A11)
-0.651	1.95	RNF10 (ring finger protein 10)
0.868	0.831	ARHGAP10 (Rho GTPase activating protein 10)
0.152	2.13	GDPD5 (glycerophosphodiester phosphodiesterase domain containing 5)
0.364	1.84	PYCR1 (pyrroline-5-carboxylate reductase 1)
-0.279	1.59	LINS1 (lines homolog 1)
-0.029	2.75	FAR2 (fatty acyl-CoA reductase 2)
-0.00273	2.72	CYB5R3 (cytochrome b5 reductase 3)
-0.702	1.84	SERPINE1 (serpin family E member 1)

No new results follow: 5 of the entries above.
mean correlation with KSR1 profile	mean distance from KSR1 profile	gene symbol
0.868	0.831	ARHGAP10 (Rho GTPase activating protein 10)
0.152	2.13	GDPD5 (glycerophosphodiester phosphodiesterase domain containing 5)
0.364	1.84	PYCR1 (pyrroline-5-carboxylate reductase 1)
-0.279	1.59	LINS1 (lines homolog 1)
-0.029	2.75	FAR2 (fatty acyl-CoA reductase 2)
